Assay results as given in patent US20070003534A1.
No constants are given. Whether binding was seen depends on the method and setting. Some binding calls cover weakened binding; strength is not graded here.

Key:
[1] = target: bait c-Jun protein from the pCMV-cJun(502-957)CBPzz vector; experiment: pull-down on IgG agarose, C-terminal labeled prey, with and without bait c-Jun, SDS-PAGE fluorescence
[2] = target: bait c-Jun protein from the pCMV-cJun(502-957)CBPzz vector; experiment: IVV cotranslation selection, bait c-Jun
[3] = target: bait c-Jun protein from the pCMV-cJun(502-957)CBPzz vector; experiment: pull-down on IgG agarose, C-terminal labeled prey, bait c-Jun

Binder | binding [1] | binding [2] | binding [3]
SEQ ID NO 34 (protein) RKWKGMLSRLQELRKEEETLLRLKAALHDQLNRLKVEELALQSMINSRGRTETLSSQPAPEQLCDMSLHVDHEVTINQTTL |  | binds | 
SEQ ID NO 43 (protein) RKWKGMLSRLQELRKEEETLLRLKAALHDQLNRLKVEELALQSMINSRGRTETLSSQPAPEQLCDMSLHVDNEVTINQTRP |  | binds | 
SEQ ID NO 36 (protein) RKWKGMLSQLQELRKEEETLLRLKAALHDQLNRLKVEELALQSMINSRGRTETLSSQPAPEQLCDMSLHVDNEVTINQTTP |  | binds | 
SEQ ID NO 42 (protein) RKWKGMLSRLQELRKEEETLLRLKAALHDQLNRLKVEELALQSMINSRGRTETLSSQPAPEQLCDMSLHVDNEVTINQTTQ |  | binds | 
SEQ ID NO 38 (protein) RKWKGMLSRLQELRKEEETLLRLNAALHDQLNRLKVEELALQSMINSRGRTETLSSQPAPEQLCDMSLHVDNEVTINQTTP |  | binds | 
SEQ ID NO 39 (protein) RKWKGMLSRLQELRKEEETLLRLKAALHDQLNRLKVEELALQSMINSRGRAETLSSQPAPEQLCDMSLHVDNEVTINQTTP |  | binds | 
SEQ ID NO 41 (protein) RKWKGMLSRLQELRKEEETLLRLKAALHDQLNRLKVEELALQSMINSRGRTETLSSQPAPEQLCDMSLHVDNEVTINQTKL |  | binds | 
SEQ ID NO 40 (protein) RKWKGMLSRLQELRKEEETLLRLKAALHDQLNRLKVEELALQSMINSRGRTETLSSQPTPEQLCDMSLHVDNEVTINQTTT |  | binds | 
SEQ ID NO 35 (protein) RKWKGMLSRLQELRKEEETLLRLKAALHDQLNRLKVEELALQSMINSRGRTETLSSQPAPEQLCDMSLHVDNEVTINQTTP |  | binds | 

Second part, the binder after the results:

binding [1] | binding [2] | binding [3] | Binder
binds | binds | binds | SEQ ID NO 115 (protein) QKRVDALNDEIRQLQQENRQLLNERIKLEGIITRVETYLNENLRKRLDQVEQELNELRETEGGTVLTATTSEK
 | binds |  | SEQ ID NO 44 (protein) RKWEGMLSRLQELRKEEETLLRLKAALHDQLNRLKVEELALQSMINSRGRTETLSSQPAPEQLCDMSLHVDNEVTINQTRP
 | binds |  | SEQ ID NO 47 (protein) WKGMLSRLQELRKEEETLLRLKAALHDQLNRLKVEELALQSMINSRGRTETLSSQPAPEQLCDMSLHVDNEVTINQTTL
 | binds |  | SEQ ID NO 48 (protein) WKGMLSRLQELRKEEEALLRLKAALHDQLNRLKVEELALQSMINSRGRTETLSSQPAPEQLCDMSLHVDNEVTINQTTL
binds | binds | binds | SEQ ID NO 110 (protein) LLQLKLRASMSTKCNLENQIKKLEDDRSSLQTAKAGLEDECKTLRQKVEILNELYLQT
 | binds | binds | SEQ ID NO 96 (protein) ELIVRITSLEVENQNLRGVVQDLQQAISKLEARLSSLEKSSPTPRATAPQTQHVSPMRQVEPPTKKGATPAEV
 | binds |  | KGMLSRLQELRKEEETLLRLKAALHDQLNRLKVKELALQSMINSRGR [SEQ ID NO 49]
